## Library screening results

From ChEMBL document CHEMBL3988442, “University of Dundee, Small-Polar-MMV Screening Library” (2021).

Values are the deposited “Percent Effect”, in %.
The controls that fix the scale are not given in the record; negative values are as filed.
Compounds were drawn at random from those tested, without regard to their results.
Two or more numbers in one place are separate tests of the same structure; such repeats can differ widely.

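Viability assay of Plasmodium falciparum sporozoites; the read-out is not stated. The concentration is filed as 10 mM, unlikely as a test dose, so the dose is not known. Direction is inferred from retests: higher values go with lower viability. Strong results were mostly tested again. Size under these conditions: about 34,000 compounds, about 280 of them at 50% or above in at least one test.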

{"compound": "CN1CCNC(=O)C12CCN(C(=O)c1ccc3[nH]c(=O)[nH]c3c1)CC2", "Percent Effect": -7.231}
{"compound": "Cc1c(CN2CCCCC2)c(O)n(CCO)c(=O)c1C#N", "Percent Effect": -1.283}
{"compound": "O=C(CCc1ccsc1)N1CCCCC1Cn1cccn1", "stereo": "stereo not shown", "Percent Effect": 5.204}
{"compound": "CN(C)C(=O)c1cccc(CN2CCN(CCO)CC2)c1", "Percent Effect": 13.35}
{"compound": "N#Cc1ccccc1N1CCCN(C(=O)CCc2ccsc2)CC1", "Percent Effect": 13.57}
{"compound": "CN1CCCC1CNC(=O)CCCOc1ccc(Cl)cc1", "stereo": "stereo not shown", "Percent Effect": 10.82}
{"compound": "Cn1nc2c(cc1=O)CN(Cc1nnc(C3CC3)o1)CC2", "Percent Effect": -3.221}
{"compound": "CN1CCCC1c1cccc(Cc2ccccc2F)n1", "stereo": "stereo not shown", "Percent Effect": -2.251}
{"compound": "Cc1ccc(Nc2nccc(C3CCCN(CC(=O)N(C)C)C3)n2)nc1", "stereo": "stereo not shown", "Percent Effect": "76.43 & 66.32 & 68.98"}
{"compound": "[H][C@@]12CN(Cc3nccs3)C[C@]1([H])CN(C(=O)c1cscn1)C2", "Percent Effect": 5.295}
{"compound": "CC(NC(=O)N1CCN(c2ccccc2O)CC1)c1nncn1C", "stereo": "stereo not shown", "Percent Effect": 22.67}
{"compound": "O=C(NCC1CCOC1)c1cc(-c2cccc(Cl)c2)on1", "stereo": "stereo not shown", "Percent Effect": -4.579}
{"compound": "Cc1noc(C2(C)CCCN(C(=O)c3cccnc3)C2)n1", "stereo": "stereo not shown", "Percent Effect": 1.155}
{"compound": "CNC(=O)c1csc(-c2cccnc2)n1", "Percent Effect": -7.53}
{"compound": "COc1ccnc(N2CCN(C(=O)Cc3ccn(C(C)C)n3)CC2)n1", "Percent Effect": 4.592}
{"compound": "COc1ccccc1N1CCN(Cc2ncc(C)c(OC)c2C)CC1=O", "Percent Effect": -17.38}
{"compound": "[H][C@]12CC[C@]([H])(CN(Cc3ccccc3)C1)N(C(=O)CSC)C2", "Percent Effect": -2.952}
{"compound": "CC(C)OCCN1CCN(C(=O)c2cccc(CC#N)c2)CC1", "Percent Effect": 6.541}
{"compound": "O=C(O)C(F)(F)F.[H][C@@]12CN(CC)C[C@]1(C(=O)N(C)C)CCC21CCN(C(C)=O)CC1", "Percent Effect": -8.773}
{"compound": "O=C(O)C(F)(F)F.c1csc(NCc2n[nH]c3c2CCN(CC2CC2)C3)n1", "Percent Effect": "45.12 & 44.9"}
{"compound": "O=C(O)C(F)(F)F.O=C(O)C(F)(F)F.O=C(c1ccncc1)N1CCC2(CC1)CCN(Cc1ccccn1)C2=O", "Percent Effect": -19.93}
{"compound": "Cc1ccc(O)c(CNC2CCCN(Cc3noc(C4CC4)n3)C2)n1", "stereo": "stereo not shown", "Percent Effect": 9.251}
{"compound": "Cc1nc(NC(=O)c2c(-n3cnnn3)sc(C)c2C)sc1C", "Percent Effect": -7.051}
{"compound": "Cc1cc(C[C@@H]2CCC[C@H]2NCc2c[nH]nc2-c2ccccc2)on1.O=C(O)CC(O)(CC(=O)O)C(=O)O", "Percent Effect": -0.3347}
{"compound": "O=C(O)C(F)(F)F.[H][C@@]12CCN(Cc3c(C)noc3C)C[C@]1(C(=O)N1CCCC1)CCO2", "Percent Effect": -21.05}
{"compound": "CN(CC1CN(Cc2cn3ccsc3n2)CCO1)c1cccnn1", "stereo": "stereo not shown", "Percent Effect": -12.95}
{"compound": "Cc1noc(-c2cccnc2N(C)Cc2ccc([S+](C)[O-])cc2)n1", "stereo": "stereo not shown", "Percent Effect": 7.898}
{"compound": "Cc1cc(N(C)C)cc(C2CCN(S(=O)(=O)c3cccnc3)C2)n1", "stereo": "stereo not shown", "Percent Effect": 2.46}
{"compound": "CCN(C)CC1CCN(C(=O)Nc2ccc(-c3csnn3)cc2)C1", "stereo": "stereo not shown", "Percent Effect": -2.558}
{"compound": "Cc1noc(C)c1-c1cncc(C2CCCN2Cc2cc[nH]n2)n1", "stereo": "stereo not shown", "Percent Effect": 4.827}
{"compound": "CCC(=O)N1CCC(Cc2ccccc2-c2cccc(C)c2)(C(N)=O)C1", "stereo": "stereo not shown", "Percent Effect": 2.181}
{"compound": "Cc1nc(C2CCCN2C(=O)CCc2ccc(F)cc2)ncc1C(N)=O", "stereo": "stereo not shown", "Percent Effect": 5.47}
{"compound": "CN1CC[C@]2(CN(CC3CCOC3)C[C@H]2c2ccccc2)C1=O.O=C(O)C(F)(F)F", "stereo": "stereo partly shown", "Percent Effect": 0.7705}
{"compound": "CCN(Cc1ccc2c(c1)OCCO2)C(=O)NCCc1cnn(C)c1", "Percent Effect": -0.08937}
{"compound": "CCc1noc(C)c1C(=O)N1CCCC1Cn1cc(C)cn1", "stereo": "stereo not shown", "Percent Effect": -2.689}
{"compound": "Cc1ncnc2c1CCN(S(=O)(=O)C1CC1)CC2", "Percent Effect": 7.089}
{"compound": "Cc1nc(O)c2nnn(C[C@H]3CCCN3C(=O)c3ccccc3F)c2n1", "Percent Effect": -2.224}

Repeated from the top, 2 entries:

For CN1CCNC(=O)C12CCN(C(=O)c1ccc3[nH]c(=O)[nH]c3c1)CC2 the result was -7.231%.
For Cc1c(CN2CCCCC2)c(O)n(CCO)c(=O)c1C#N the result was -1.283%.